The other results are listed elsewhere or left out.
target: T1, OsSMF1 (Oryza sativa, UniProt Q6ZLB0 1-436); test: protein-binding microarray (RPBM); PBS, 2% BSA, 51.3 ng/ul salmon testes DNA, 50 uM zinc acetate, 200 nM TF, 25 C, 1 h; high values mean tight binding; settings: protein: recombinant; tags: N-terminal polyhistidine and DsRed monomer fusion (pET32a); chain copies: 2; label: CyDye5-dUTP incorporated in the synthesized complementary strand; 3' TTTTT single-stranded linker to array surface; dsDNA, one strand shown
T1 sequence: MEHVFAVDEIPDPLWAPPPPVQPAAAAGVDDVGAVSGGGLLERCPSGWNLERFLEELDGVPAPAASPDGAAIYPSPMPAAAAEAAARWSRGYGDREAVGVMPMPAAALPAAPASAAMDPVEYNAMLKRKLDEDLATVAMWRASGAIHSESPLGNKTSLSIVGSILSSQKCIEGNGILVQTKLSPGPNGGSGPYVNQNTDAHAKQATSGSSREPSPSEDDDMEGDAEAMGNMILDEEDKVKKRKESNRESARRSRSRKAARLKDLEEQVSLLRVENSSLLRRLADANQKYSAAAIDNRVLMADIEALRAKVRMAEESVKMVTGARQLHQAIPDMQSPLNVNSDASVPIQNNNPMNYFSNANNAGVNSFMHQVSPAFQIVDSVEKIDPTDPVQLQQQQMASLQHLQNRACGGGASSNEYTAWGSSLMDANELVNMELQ
Summary of the method: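 Ni–NTA purification followed expression in E. coli BL21-CodonPlus of transcription factors fused N-terminally to a polyhistidine tag and DsRed. At 200 nM in PBS with 2% BSA, salmon testes DNA and 50 µM zinc acetate, the protein was incubated for 1 h at 25 °C with a custom Agilent array that had been primer-extended with Cy5-dUTP and blocked with 2% BSA. After washing, the array was read on an Axon 4000B scanner. The binding signal is per-feature fluorescence intensity in arbitrary units.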

Sequence | binding signal
TATAATTTTGTCATAAATAAAATATTTTAAGCAATATCGTCGGAGTCACCTAGTGCAG | 32000 fluorescence intensity (a.u.)
GATCCTCACAGGATCACGGTCGTGGCATTGCTGGTCCTTGCGGAGTCACCTAGTGCAG | 3410 fluorescence intensity (a.u.)
CGCCGCGACGACGGCGGCGGCTGGCCATGGCGGCTCTGTTCGGAGTCACCTAGTGCAG | 26500 fluorescence intensity (a.u.)
ATCCACGGCCTCCCTCTCTCTCTCTTTCTCGGCTCAGGCACGGAGTCACCTAGTGCAG | 23300 fluorescence intensity (a.u.)
TCTATCACGAGATGTGATATATTCTTTCCTAGTACTACAACGGAGTCACCTAGTGCAG | 3410 fluorescence intensity (a.u.)
CCTTCCTGCAGTCTAGTCACCTCTCAAGCTACATACTCCCCGGAGTCACCTAGTGCAG | 3650 fluorescence intensity (a.u.)
CGATCCCCATCGCCATGGCCTTGGGTGGCGTGTCCATGGCCGGAGTCACCTAGTGCAG | 4030 fluorescence intensity (a.u.)
TGGAGGGCAGTTTCGCTGACGTGGCGGTGTTGACCTAGTGCGGAGTCACCTAGTGCAG | 34200 fluorescence intensity (a.u.)
AGTTTCAGACTTGTGCACTCGATTTTGTTCTAGGAACATACGGAGTCACCTAGTGCAG | 33600 fluorescence intensity (a.u.)
AGGGGTGAAAGGTTTTGGCGTGTCACATTGGATATACGGGCGGAGTCACCTAGTGCAG | 4170 fluorescence intensity (a.u.)
ACAATGTCCTTGTGCAATCTATATCGGTCATGACGTCGTGCGGAGTCACCTAGTGCAG | 4600 fluorescence intensity (a.u.)
TCACGGATTAGATTCGTGTCACTTAAAATATCTTGTTTTGCGGAGTCACCTAGTGCAG | 3580 fluorescence intensity (a.u.)
GGATGTTCGTGTATGCATGGCTAGATCAGGTTGTTAGCTTCGGAGTCACCTAGTGCAG | 3530 fluorescence intensity (a.u.)
GATGTTACGCGTGTAATGGTGTGTGCGTGTATATACTTTGCGGAGTCACCTAGTGCAG | 7330 fluorescence intensity (a.u.)
AATTTTATAACTCATCTGAAAACCGCGAGACGAATTTAAGCGGAGTCACCTAGTGCAG | 12300 fluorescence intensity (a.u.)
GGTCGGTCGGTCGCGTCGCTCGGGCTTGGCTTGTTTGCGTCGGAGTCACCTAGTGCAG | 23000 fluorescence intensity (a.u.)
TGCTCATATGGGTAGGTGTACACACGTGTTGTGATAGTGTCGGAGTCACCTAGTGCAG | 3840 fluorescence intensity (a.u.)
ATCAAACATATCCTACATGTATTCATTCATAGCATGACGTCGGAGTCACCTAGTGCAG | 12000 fluorescence intensity (a.u.)
CTGGGGCTACGCCGTCGCCACGACATTGCTGAGCTACGTCCGGAGTCACCTAGTGCAG | 5540 fluorescence intensity (a.u.)
TCGTCGTGGTAGACGTACGCGAACCCGCCGTGCCGTGTCACGGAGTCACCTAGTGCAG | 4520 fluorescence intensity (a.u.)
GGCTGCCGGTGAAGGGGCTGCGTCAGATGGCGGCACCACGCGGAGTCACCTAGTGCAG | 3630 fluorescence intensity (a.u.)

Sequence | binding signal
CTACAGCAACAGCATCTAGTATATACGGCCACGTCCACCTCGGAGTCACCTAGTGCAG | 5450 fluorescence intensity (a.u.)
GGTTGGAATATTCTAGTTGCATGGCGTCATTTCAGAATGTCGGAGTCACCTAGTGCAG | 4890 fluorescence intensity (a.u.)
ATAAATATATATCATACATATACATATGTGTATATATACGCGGAGTCACCTAGTGCAG | 26200 fluorescence intensity (a.u.)
TCGTCCGATCCCCTAGCGTGGCCACCGATCCGCCCGTCCCCGGAGTCACCTAGTGCAG | 3230 fluorescence intensity (a.u.)
ATCCAAATTAATTGTTTTAAAATAGTTTTAAGAAGGATCTCGGAGTCACCTAGTGCAG | 3430 fluorescence intensity (a.u.)
GCATCCAGAAAGAGCCACGTCATCCAAATAATCCTAACCGCGGAGTCACCTAGTGCAG | 17900 fluorescence intensity (a.u.)
ATGATCTTTAATTATGTTCTGCGGTAGAGATGACAAACTTCGGAGTCACCTAGTGCAG | 3760 fluorescence intensity (a.u.)
AGCGCGCGGCGGGCGCGCCCCACCGGCCTCCTCCCCTCCTCGGAGTCACCTAGTGCAG | 13000 fluorescence intensity (a.u.)
GTTAAAACTATATGATTGTGTGAGTCAGCGCACTTTGCACCGGAGTCACCTAGTGCAG | 8260 fluorescence intensity (a.u.)
AGAGTGTAAATTACACTAGGATGACACATACTCCCTCCGTCGGAGTCACCTAGTGCAG | 3340 fluorescence intensity (a.u.)
TTGTAAGTCAGGCAGAGTAGATGATGCAATGCTTAATTTGCGGAGTCACCTAGTGCAG | 3220 fluorescence intensity (a.u.)
CTGGAGGGAAAGGTCGGGCCCACGTAAGGGAACAAAACCACGGAGTCACCTAGTGCAG | 3480 fluorescence intensity (a.u.)
GTAATACTGCTGGTGCAGTAGCAGACGCTGACACGTGGGTCGGAGTCACCTAGTGCAG | 8980 fluorescence intensity (a.u.)
CCCCTCCGCTAGTAATCACCGACTCTCCCCATTGTGTCACCGGAGTCACCTAGTGCAG | 3900 fluorescence intensity (a.u.)
GCGGGCGAGCCGTAGAGGATTAAAATGGTAAAGCCGCTAACGGAGTCACCTAGTGCAG | 3490 fluorescence intensity (a.u.)
GAACACGATCAACTCGATCCATCTCTCTCTAGATCAGCTGCGGAGTCACCTAGTGCAG | 3560 fluorescence intensity (a.u.)
GTTCCCAACCTCTGCCTCTCATGACTCATTTTCTGCGCGCCGGAGTCACCTAGTGCAG | 8180 fluorescence intensity (a.u.)
CTGCCCTGAGCCCGCGCGCCGCCACCAGGGAGCCGCCGTCCGGAGTCACCTAGTGCAG | 3640 fluorescence intensity (a.u.)
CTTAATACTGACACTGGATGCGTGTCAAATTGGAGTTCCACGGAGTCACCTAGTGCAG | 3140 fluorescence intensity (a.u.)
AGAATTGTCTGTAGCTGCTTATGTGTACATCTAGCAAGCCCGGAGTCACCTAGTGCAG | 8340 fluorescence intensity (a.u.)
GCCCGTCCGTGCAGCAGCCTCGAGCGGCCGTGTCGTGCAGCGGAGTCACCTAGTGCAG | 28000 fluorescence intensity (a.u.)

Look-ups from the list.
TCGTCCGATCCCCTAGCGTGGCCACCGATCCGCCCGTCCCCGGAGTCACCTAGTGCAG | binding signal: 3230 fluorescence intensity (a.u.)
AGAATTGTCTGTAGCTGCTTATGTGTACATCTAGCAAGCCCGGAGTCACCTAGTGCAG | binding signal: 8340 fluorescence intensity (a.u.)
ATCAAACATATCCTACATGTATTCATTCATAGCATGACGTCGGAGTCACCTAGTGCAG | binding signal: 12000 fluorescence intensity (a.u.)

— paper PMC7819943, “Rice protein-binding microarrays: a tool to detect cis-acting elements near promoter regions in rice”
